Results reported in PMC4422595.
These are yes or no findings as the source states them, for the method shown. Binding seen in cells or lysates may run through a third protein. Some binding calls cover weakened binding; strength is not graded here.

Chains of the proteins cited; added tags and fusions are not shown.
UniProt Q9UKV5: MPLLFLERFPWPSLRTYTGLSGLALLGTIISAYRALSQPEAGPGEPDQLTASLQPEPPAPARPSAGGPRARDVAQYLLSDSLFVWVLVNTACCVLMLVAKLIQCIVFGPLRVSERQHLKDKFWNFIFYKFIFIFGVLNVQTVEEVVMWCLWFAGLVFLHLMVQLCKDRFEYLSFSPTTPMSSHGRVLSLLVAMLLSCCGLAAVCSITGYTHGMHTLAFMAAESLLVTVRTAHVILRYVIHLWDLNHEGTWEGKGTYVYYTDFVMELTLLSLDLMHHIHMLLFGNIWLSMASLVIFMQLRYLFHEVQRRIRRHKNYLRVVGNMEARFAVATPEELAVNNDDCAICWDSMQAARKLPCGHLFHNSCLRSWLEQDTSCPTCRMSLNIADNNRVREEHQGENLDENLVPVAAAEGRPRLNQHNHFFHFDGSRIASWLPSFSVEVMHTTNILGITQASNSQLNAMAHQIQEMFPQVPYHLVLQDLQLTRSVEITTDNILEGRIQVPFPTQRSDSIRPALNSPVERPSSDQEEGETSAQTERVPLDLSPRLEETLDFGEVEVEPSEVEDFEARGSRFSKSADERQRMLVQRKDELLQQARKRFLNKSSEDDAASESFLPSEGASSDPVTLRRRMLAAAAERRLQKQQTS

Target: Glucose-6-phosphate isomerase, Flag-tagged (pcDNA3.1-GPI-Flag) (human) (UniProt P06744)
Test: co-IP; FLS transfected with pcDNA3.1-GPI-Flag; lysates collected 48 hours later; FLAG Immunoprecipitation Kit (Sigma-Aldrich); bound fragments analysed by Western blot

- binding: binds
Substance: glycoprotein 78 (autocrine motility factor receptor) (from UniProt Q9UKV5 1-643)
